Results are given in words; binding and its absence hold for the method and conditions named. Binding seen in cells or lysates may run through a third protein. Binding calls can cover weak binding; strength is not graded here.
Assays:
[1] = molecular target: ADAM10 (endogenous; form not told) (human (endogenous in PHA blasts and Jurkat cells)) (UniProt O14672); test: co-IP; endogenous proteins, Jurkat T cells (JE6-1); 2 µg of mAbs against Lck (4/129, 4/215) or ADAM10 (11G2) with Protein G beads; blots with mAb 11G2 or anti-Grb2 (C-23)
[2] = molecular target: murine HA-tagged ADAM10 (mouse) (UniProt O35598); test: co-IP; HEK 293T cells transfected with HA-tagged murine ADAM10 alone or with human Endophilin-A2/EEN; IP with anti-HA (3F10) or anti-EEN (2F5); 1% NP-40 lysis buffer with 5 mM EDTA

The chains behind the UniProt entries cited, without tags or fusion partners. Where a name states a change or a piece, a line headed by the entry shows the natural chain unless it says otherwise.
UniProt O14672: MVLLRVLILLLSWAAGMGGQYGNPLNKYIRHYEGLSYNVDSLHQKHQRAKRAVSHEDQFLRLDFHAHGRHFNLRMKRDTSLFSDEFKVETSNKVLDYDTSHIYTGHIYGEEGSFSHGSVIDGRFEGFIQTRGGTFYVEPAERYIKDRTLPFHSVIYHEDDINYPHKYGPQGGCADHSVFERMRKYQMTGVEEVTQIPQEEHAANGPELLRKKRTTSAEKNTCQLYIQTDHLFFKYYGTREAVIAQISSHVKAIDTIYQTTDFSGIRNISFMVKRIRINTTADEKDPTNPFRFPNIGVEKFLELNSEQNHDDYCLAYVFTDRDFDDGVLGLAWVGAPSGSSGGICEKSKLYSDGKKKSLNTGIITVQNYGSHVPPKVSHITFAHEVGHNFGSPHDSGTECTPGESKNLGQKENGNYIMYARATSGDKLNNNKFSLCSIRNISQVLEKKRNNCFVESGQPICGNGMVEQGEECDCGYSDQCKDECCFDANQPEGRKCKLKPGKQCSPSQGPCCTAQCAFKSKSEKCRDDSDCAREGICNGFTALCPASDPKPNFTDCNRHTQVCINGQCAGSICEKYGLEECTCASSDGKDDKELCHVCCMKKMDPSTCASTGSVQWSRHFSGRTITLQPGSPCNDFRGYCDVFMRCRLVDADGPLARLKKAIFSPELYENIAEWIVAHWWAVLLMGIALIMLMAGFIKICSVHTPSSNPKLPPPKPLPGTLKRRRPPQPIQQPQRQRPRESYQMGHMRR
UniProt O35598: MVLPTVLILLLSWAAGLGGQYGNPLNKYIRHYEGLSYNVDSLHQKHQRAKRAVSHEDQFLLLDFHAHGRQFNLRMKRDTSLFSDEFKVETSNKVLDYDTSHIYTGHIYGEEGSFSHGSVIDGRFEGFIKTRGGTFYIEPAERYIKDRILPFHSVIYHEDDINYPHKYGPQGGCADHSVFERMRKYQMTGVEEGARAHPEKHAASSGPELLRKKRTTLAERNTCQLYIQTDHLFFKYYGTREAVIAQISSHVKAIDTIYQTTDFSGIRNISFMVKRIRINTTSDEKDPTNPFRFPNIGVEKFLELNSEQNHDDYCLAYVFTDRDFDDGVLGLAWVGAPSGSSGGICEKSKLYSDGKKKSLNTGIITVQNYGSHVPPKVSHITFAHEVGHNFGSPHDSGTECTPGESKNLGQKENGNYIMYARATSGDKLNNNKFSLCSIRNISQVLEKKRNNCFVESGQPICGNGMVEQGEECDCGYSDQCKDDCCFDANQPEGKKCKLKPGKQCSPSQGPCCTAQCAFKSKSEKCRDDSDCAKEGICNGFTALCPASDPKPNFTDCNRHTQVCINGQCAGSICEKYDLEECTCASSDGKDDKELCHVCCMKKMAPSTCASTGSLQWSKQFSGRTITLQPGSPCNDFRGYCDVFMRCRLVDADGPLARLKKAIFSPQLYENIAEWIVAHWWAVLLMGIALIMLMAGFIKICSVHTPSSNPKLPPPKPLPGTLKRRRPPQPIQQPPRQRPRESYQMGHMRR
UniProt P62993: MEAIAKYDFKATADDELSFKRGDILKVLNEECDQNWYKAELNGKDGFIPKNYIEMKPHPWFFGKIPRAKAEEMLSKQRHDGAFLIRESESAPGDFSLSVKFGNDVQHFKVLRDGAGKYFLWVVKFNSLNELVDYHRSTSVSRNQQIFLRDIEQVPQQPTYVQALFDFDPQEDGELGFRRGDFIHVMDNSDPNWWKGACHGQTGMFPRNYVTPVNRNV
UniProt Q99961: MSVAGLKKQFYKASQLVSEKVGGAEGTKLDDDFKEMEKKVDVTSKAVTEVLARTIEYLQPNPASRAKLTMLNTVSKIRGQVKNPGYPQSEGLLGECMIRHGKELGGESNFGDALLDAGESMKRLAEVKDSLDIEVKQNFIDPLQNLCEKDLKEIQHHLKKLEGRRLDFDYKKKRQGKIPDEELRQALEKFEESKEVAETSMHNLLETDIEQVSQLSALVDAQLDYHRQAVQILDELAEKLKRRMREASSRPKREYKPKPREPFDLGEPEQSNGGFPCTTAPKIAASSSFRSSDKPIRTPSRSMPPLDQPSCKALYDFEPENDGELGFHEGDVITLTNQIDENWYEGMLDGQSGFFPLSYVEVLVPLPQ

Row | binding [1] | binding [2] | Substance
1 | binds | – | Grb2 (endogenous) (from UniProt P62993 1-217)
2 | – | binds | human Endophilin-A2/EEN (from UniProt Q99961 1-368)
